Measured values as given in the supplement of paper PMC12889115.
The list shows a part of the results. These are raw signals, not scaled to a control.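 In the initial screen, polymyxin B was used at a concentration that permeabilizes Salmonella's outer membrane but not its inner membrane. Maximum growth was set by DMSO wells with or without polymyxin B. Since plates varied, data were ranked per plate, and compounds giving the lowest OD600 advanced as hits.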

System: Salmonella enterica serovar Typhimurium SL1344
Assay: bacterial growth OD600 after 18 h with compound and polymyxin B; higher = more bacterial growth (less inhibition)
Details: 50 µM, Mueller-Hinton broth

SMILES | bacterial growth OD600 (polymyxin B 1 µg/mL) | bacterial growth OD600 (polymyxin B 0.75 µg/mL)
C=C(C)CNC(=O)Cc1c2c(n(Cc3ccccc3)c1C)CCCC2=O | 1.14 | 
Cc1csc(SCC(=O)N2CCCC(c3nc(SCc4cccnc4)ncc3C)C2)n1 (centres undefined) |  | 0.83
COCc1ccc(CN2CCc3c(C(=O)NCc4ccccc4OC)c(OC)cc(=O)n3CC2)o1 |  | 0.822
CC(C)S(=O)(=O)c1ncc(CN(C)Cc2cccnc2)n1CCc1ccccc1 | 0.657 | 
O=C(Cn1cccn1)N1CCCC(N2CCN(Cc3ccc4c(c3)OCO4)CC2)C1 (centres undefined) | 1.08 | 
COc1ccc(-c2noc(CN(C)Cc3cccc(C(F)(F)F)c3)n2)c(OC)c1OC | 0.849 | 
CCN(CC)C1CCN(C(=O)c2cc(COc3ccc(-n4cncn4)cc3)on2)C1 (centres undefined) | 0.886 | 
O=C(c1cccc(OC2CCN(C3CCCC3)CC2)c1)N1C[C@@H]2CCC[C@H]1C2 | 1.21 | 
CC(NC(=O)c1ccc(N2CCC(NCCCN3CCCC3=O)CC2)cc1)c1ccccc1 (centres undefined) |  | 0.858
Cc1ccc(C(=O)N(Cc2ccc(OCc3ccc4c(c3)OCO4)cc2)CC2CCCO2)s1 (centres undefined) |  | 0.001
COCc1ccc(C(=O)NCc2c(C)ncc3c2CCN(C(=O)c2cc(F)c(F)cc2F)C3)o1 |  | 0.854
Cc1nc(N2CCC(C(=O)N3CCNC(=O)C3c3cccc(F)c3)CC2)nc2ccc(C(C)C)cc12 (centres undefined) |  | 0
O=C(c1ccccc1-c1ncc[nH]1)N1CCC2(CCCN(CC3CC3)C2)C1 (centres undefined) |  | 0.841
CCOC(=O)C1(CCOc2ccccc2)CCN(Cc2cccc3nccnc23)CC1 |  | 0.681
COCCCN1C(=O)CC(CC(=O)N2CCCC(c3ccccc3C)C2)(c2ccccc2Cl)C1=O (centres undefined) |  | -0.043
O=C(CCC1(Cc2ccc(Cl)cc2)CCC(=O)N1)NCc1ccc(C(F)(F)F)cc1 (centres undefined) |  | 0.002
CCOC(=O)C1(Cc2ccccc2C(F)(F)F)CCN(Cc2cnn(C(C)C)c2)CC1 | 0.857 | 
CN(Cc1nc2ccccc2s1)C(=O)CCC1(Cc2ccc(F)cc2)CCC(=O)N1 (centres undefined) |  | 0.796
CC(CNC(=O)c1coc(CN2CCN(c3ncccn3)CC2)n1)c1ccccc1 (centres undefined) | 0.864 | 

Copied from the list.
COCc1ccc(CN2CCc3c(C(=O)NCc4ccccc4OC)c(OC)cc(=O)n3CC2)o1 – bacterial growth OD600 (polymyxin B 0.75 µg/mL): 0.822
Cc1ccc(C(=O)N(Cc2ccc(OCc3ccc4c(c3)OCO4)cc2)CC2CCCO2)s1 (centres undefined) – bacterial growth OD600 (polymyxin B 0.75 µg/mL): 0.001
